The results in this text go back to PMC7819943, “Rice protein-binding microarrays: a tool to detect cis-acting elements near promoter regions in rice”.

Sequences of proteins named here, by UniProt entry; tags and fusion partners are left off.
UniProt Q0JBA9, entry or part of it: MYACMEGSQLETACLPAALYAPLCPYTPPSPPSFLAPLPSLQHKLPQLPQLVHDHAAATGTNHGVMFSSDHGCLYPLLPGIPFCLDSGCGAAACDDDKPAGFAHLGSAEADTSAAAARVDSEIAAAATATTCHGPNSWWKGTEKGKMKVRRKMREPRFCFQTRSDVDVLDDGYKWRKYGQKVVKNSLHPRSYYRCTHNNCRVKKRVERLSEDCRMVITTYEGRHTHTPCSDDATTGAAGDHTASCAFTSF

The other results are listed elsewhere or left out.

For this assay, the target named is OsWRKY34 (Oryza sativa, UniProt Q0JBA9 1-250). As to the kind of experiment: protein-binding microarray (RPBM); PBS, 2% BSA, 51.3 ng/ul salmon testes DNA, 50 uM zinc acetate, 200 nM TF, 25 C, 1 h; high values mean tight binding. The note with it: protein: recombinant; tags: N-terminal polyhistidine and DsRed monomer fusion (pET32a); label: CyDye5-dUTP incorporated in the synthesized complementary strand; 3' TTTTT single-stranded linker to array surface; dsDNA, one strand shown. A digest of the protocol:
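Ni–NTA purification followed expression in E. coli BL21-CodonPlus of transcription factors fused N-terminally to a polyhistidine tag and DsRed. At 200 nM in PBS with 2% BSA, salmon testes DNA and 50 µM zinc acetate, the protein was incubated for 1 h at 25 °C with a custom Agilent array that had been primer-extended with Cy5-dUTP and blocked with 2% BSA. After washing, the array was read on an Axon 4000B scanner. The binding signal is per-feature fluorescence intensity in arbitrary units.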
Consider “GATTTGGTCTGGTTTGGTTGGAGGTTAGCTCGCCTCTGATCGGAGTCACCTAGTGCAG”, for which the binding signal is 19400 fluorescence intensity (a.u.). The figure for “GCGGAGGGGAGGCGGAGGGGAGGCAGAGTAGGTAGAGGAGCGGAGTCACCTAGTGCAG” is 12000 fluorescence intensity (a.u.); for “GACTCGAGCCCGTGCCGCACGGGGCATTTCCACCGTCGGACGGAGTCACCTAGTGCAG” it is 8130 fluorescence intensity (a.u.). On to “ATGATTTCGGGGATGTGCAGGGCTGGTGATCTGGACGGTGCGGAGTCACCTAGTGCAG”, for which the binding signal was 15000 fluorescence intensity (a.u.). The result for “ATTTTGATTTAGACTAGCTTTTCTTTTTCTCAGTTTTATCCGGAGTCACCTAGTGCAG” reads 11300 fluorescence intensity (a.u.); that for “CCTCCATTTCTTTAGCGGTTGCCAAGGGTTCTTGAGCTGTCGGAGTCACCTAGTGCAG”, 9360 fluorescence intensity (a.u.); that for “CCCGCTCAGCCCATGCGCCACCCGCCGCCGCGGCTGCCACCGGAGTCACCTAGTGCAG”, 8500 fluorescence intensity (a.u.).

In the case of “ACTCTGCCGCCGCCACTCCACCACCACTCCGTCGCCGTGGCGGAGTCACCTAGTGCAG”, the binding signal is 8290 fluorescence intensity (a.u.). For the sequence “TGTCATCGTCATCTTCTCCAACGCCGGCCTATATATACCACGGAGTCACCTAGTGCAG”, the binding signal is 9370 fluorescence intensity (a.u.).

As for “TCTTTATGAAGTCCTTGTCACAGTTGATGACTTGCTTAATCGGAGTCACCTAGTGCAG”, the binding signal is 9070 fluorescence intensity (a.u.).

In the case of “CCACACTCCGTCGGCCACCTGCCCTACTCCTCCCTCCTCTCGGAGTCACCTAGTGCAG”, the binding signal was 8940 fluorescence intensity (a.u.). The result for “TGACGCCGGTGGGTTTGTGTGTTAGTGTGACATATGTGTGCGGAGTCACCTAGTGCAG” reads 9130 fluorescence intensity (a.u.). The figure for “GGGATTTTTATTTAGGATTTTCTTTTATCTGTATTTTTTTCGGAGTCACCTAGTGCAG” is 8860 fluorescence intensity (a.u.); for “AAAGAACCGATCACCATTCCATTTCGCTTCTCTCCCAGTTCGGAGTCACCTAGTGCAG” it is 10700 fluorescence intensity (a.u.). For the sequence “TTGTTCCTTTACAGTTTACAGTCATCTCTATTGTAGTATTCGGAGTCACCTAGTGCAG”, the binding signal is 9770 fluorescence intensity (a.u.). As to “GCCGCCACACCCGACTATTATGGCGACTACTCTCGGCCAGCGGAGTCACCTAGTGCAG”, the binding signal was 9530 fluorescence intensity (a.u.). The result for “ATTATGCCATGATTTTCTTTTAAGTATACGAATACACATTCGGAGTCACCTAGTGCAG” reads 8120 fluorescence intensity (a.u.).

As for “CTCTTCTCGTAACTTTGATCTCTCTTATTGATGAACTCTTCGGAGTCACCTAGTGCAG”, the binding signal is 9540 fluorescence intensity (a.u.). The result for “CGTCATGCCTCACAGTTTTTCTTCTCTTTTTCCTTCTTCTCGGAGTCACCTAGTGCAG” reads 8040 fluorescence intensity (a.u.); that for “CGGTTTGTTGAGATGGCCTCTCTCCCGTCGGATACTGTCGCGGAGTCACCTAGTGCAG”, 8700 fluorescence intensity (a.u.). On to “GGTGCGTCGTGGGTGGATTCGGATGGTTGCTTGGTAGGATCGGAGTCACCTAGTGCAG”, for which the binding signal was 8160 fluorescence intensity (a.u.). With “CGTCCCCGGCCTCACCCCGGCCTCGCGTACGGAAGTCGTCCGGAGTCACCTAGTGCAG”, the binding signal is 8810 fluorescence intensity (a.u.). The figure for “AGACACCTGGCACAACACACATCGCCCATCTTACACGTGCCGGAGTCACCTAGTGCAG” is 8590 fluorescence intensity (a.u.); for “GGAATTGCGCGCGCGCTGGTGGAGGGAGACGGGTGGGGATCGGAGTCACCTAGTGCAG” it is 10700 fluorescence intensity (a.u.); for “ACCATTGTCGCATGCTCACATCCCATCTTTTCCAAAGGGACGGAGTCACCTAGTGCAG” it is 10300 fluorescence intensity (a.u.). The result for “CAAGGCAGCACAGAACAGAGCACTCCCTCTCCCACCACCACGGAGTCACCTAGTGCAG” reads 8360 fluorescence intensity (a.u.); that for “CATCGCTTCCCAGCCGCAGTTTTGACCGGGAGGATTCCATCGGAGTCACCTAGTGCAG”, 8240 fluorescence intensity (a.u.); that for “GTGATGGGGTGAGCCAATTGGGTTGGGTTGGCTAGGCTGACGGAGTCACCTAGTGCAG”, 8500 fluorescence intensity (a.u.). The figure for “TAGAGAATTGATTGGGCTTTTGGTTGACTTCTTTGACACGCGGAGTCACCTAGTGCAG” is 11900 fluorescence intensity (a.u.).

“ATGTATGCACGATGTGAGTGTCCGTGTTTGTAATGTGTTTCGGAGTCACCTAGTGCAG”: the binding signal is 11300 fluorescence intensity (a.u.).

With “TCTTTAGGGGCAAATTTTGATGGTCAACGTATCCTCAGCACGGAGTCACCTAGTGCAG”, the binding signal is 9510 fluorescence intensity (a.u.).

On to “GTCCGTCTTATATAAAATTTTTTTATAATTTATATTTTCACGGAGTCACCTAGTGCAG”, for which the binding signal is 8500 fluorescence intensity (a.u.). The result for “AACAGCAGCAGCGTGGCGCCTTGACCGTTTGACCTCGCAACGGAGTCACCTAGTGCAG” reads 9590 fluorescence intensity (a.u.); that for “TTTCTCTGCCTTTCTTTCTTCTATCGTCCATGCTTCATCACGGAGTCACCTAGTGCAG”, 9310 fluorescence intensity (a.u.). “AACTACTTTCTTTTCATTACTAATGATCATCATATCTTTCCGGAGTCACCTAGTGCAG”: the binding signal was 9780 fluorescence intensity (a.u.).

Take “TGTGTGTGTGTGTGTGTGTGTGTGTGATGGATTAAAAAATCGGAGTCACCTAGTGCAG”: the binding signal is 8470 fluorescence intensity (a.u.). “CCAGGCGTCGCCGAGCTCTGCTCCGTCGTGTCAGCTTCTTCGGAGTCACCTAGTGCAG”: the binding signal was 8140 fluorescence intensity (a.u.).

Take “TTCTTCAGTTTTTAACTAATCCTAATCTAGTTCTATTTTTCGGAGTCACCTAGTGCAG”: the binding signal is 8090 fluorescence intensity (a.u.). The result for “CCACTTCTCGCCTTGCTCGCATTCCTTCCTTGCCTCCATCCGGAGTCACCTAGTGCAG” reads 8400 fluorescence intensity (a.u.); that for “CACCACCACCACCACCTCTTCCCTCCCCGGCGTCCGCTCCCGGAGTCACCTAGTGCAG”, 9030 fluorescence intensity (a.u.). The result for “AACTCACACTCGCTCGCTCATCGCCATCTCTCTCAGCTCTCGGAGTCACCTAGTGCAG” reads 15800 fluorescence intensity (a.u.); that for “ATGTCCCGTTCTGAAAAGTAACACTCCTTCCATCTTTTTCCGGAGTCACCTAGTGCAG”, 9930 fluorescence intensity (a.u.).
